Results deposited as PubChem BioAssay AID743121 (NCATS, 2013)

Assay: 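Partners whose loss is lethal together with topoisomerase I blockade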 (primary screen)
Cells: MDA-MB-231 cells, a human breast cancer line
Knock-down reagent: single siRNA against human genes, 20 nM siRNA (0.8 pmol per well)
Timing: 120 h (drug added 48 h after transfection, read 72 h later)
Conditions: camptothecin 20 nM (about EC30) for 72 h; vehicle 0.1% DMSO in parallel plates
Measured: 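Cell viability by ATP luminescence (CellTiter-Glo) as % of non-targeting siRNA wells, and the log2 ratio of viability without drug over viability with camptothecin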
Reading the numbers: log2 vehicle/camptothecin viability: higher = stronger sensitisation to camptothecin
Rule for the call: 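Each gene scored by redundant siRNA activity (RSA) over its individual siRNA ratios; a gene is called active at p < 0.001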
Shown is one part, drawn at random, of about 26,000 deposited reagents. In the full data, 167 (0.63%) are marked active. 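Calls are per gene from RSA p-values that are not deposited; an individual active-marked siRNA can sensitise only weakly.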 Reagents against one gene are numbered here. Not all columns of the deposit are shown.

log2 vehicle/camptothecin viability, by gene and reagent
ANAPC11: #1 -0.16 inactive; #2 0.00131 inactive; #3 0.115 inactive; #4 0.0803 inactive
FBXL2: #1 0.307 inactive; #2 0.135 inactive; #3 -0.295 inactive; #4 -0.428 inactive
C2: #1 -0.0474 inactive; #2 -0.27 inactive; #3 -0.0374 inactive; #4 0.00564 inactive
SAA1: #1 -0.514 inactive; #2 0.0908 inactive
GIPC1: #1 0.00856 inactive; #2 -0.403 inactive; #3 -0.0836 inactive
NRG3: #1 -0.222 inactive; #2 -0.329 inactive; #3 0.43 inactive
IRF9: #1 0.0236 inactive; #2 -0.242 inactive; #3 -0.0583 inactive; #4 -0.22 inactive
UCP3: #1 -0.212 inactive; #2 -0.662 inactive; #3 -0.386 inactive; #4 -0.218 inactive
GK5: #1 -0.092 inactive; #2 -0.365 inactive; #3 -0.345 inactive; #4 -0.351 inactive
TRIM67: #1 -0.226 inactive; #2 0.401 inactive; #3 0.00593 inactive; #4 -0.175 inactive
LYPD5: #1 -0.108 inactive; #2 0.0808 inactive; #3 -0.114 inactive; #4 -0.561 inactive
TULP3: #1 0.119 inactive; #2 -0.23 inactive; #3 -0.0321 inactive; #4 0.0366 inactive
ABCA2: #1 -0.366 inactive; #2 0.465 inactive; #3 -0.271 inactive; #4 -0.0772 inactive
ARHGEF4: #1 0.376 inactive; #2 -0.212 inactive; #3 -0.047 inactive; #4 -0.208 inactive
SIK3: #1 -0.692 inactive; #2 0.0224 inactive; #3 -0.411 inactive
AURKB: #1 -0.283 inactive; #2 -0.545 inactive; #3 -0.354 inactive; #4 0.554 inactive
SLC25A25: #1 -0.356 inactive; #2 -0.242 inactive; #3 -0.282 inactive; #4 -0.0517 inactive
PPARGC1A: #1 -0.275 inactive; #2 0.136 inactive; #3 0.154 inactive
ADCK1: #1 -0.0562 inactive; #2 0.434 inactive; #3 -0.196 inactive; #4 -0.482 inactive

Single entries from the entries so far:
Under “log2 vehicle/camptothecin viability”, TRIM67 #2 reads 0.401
Under “log2 vehicle/camptothecin viability”, NRG3 #1 has -0.222
FBXL2 #1, log2 vehicle/camptothecin viability = 0.307
Entry for PPARGC1A #2 under “log2 vehicle/camptothecin viability”: 0.136
GK5 #4, outcome → inactive
Under “log2 vehicle/camptothecin viability”, TULP3 #1 reads 0.119
